Measurements: the supplement of paper PMC10849652
The other results are listed elsewhere or left out.

Sequences of proteins named here, by UniProt entry; tags and fusion partners are left off. A change or cut given only in a name is not applied to a line headed by its entry.
UniProt Q92543: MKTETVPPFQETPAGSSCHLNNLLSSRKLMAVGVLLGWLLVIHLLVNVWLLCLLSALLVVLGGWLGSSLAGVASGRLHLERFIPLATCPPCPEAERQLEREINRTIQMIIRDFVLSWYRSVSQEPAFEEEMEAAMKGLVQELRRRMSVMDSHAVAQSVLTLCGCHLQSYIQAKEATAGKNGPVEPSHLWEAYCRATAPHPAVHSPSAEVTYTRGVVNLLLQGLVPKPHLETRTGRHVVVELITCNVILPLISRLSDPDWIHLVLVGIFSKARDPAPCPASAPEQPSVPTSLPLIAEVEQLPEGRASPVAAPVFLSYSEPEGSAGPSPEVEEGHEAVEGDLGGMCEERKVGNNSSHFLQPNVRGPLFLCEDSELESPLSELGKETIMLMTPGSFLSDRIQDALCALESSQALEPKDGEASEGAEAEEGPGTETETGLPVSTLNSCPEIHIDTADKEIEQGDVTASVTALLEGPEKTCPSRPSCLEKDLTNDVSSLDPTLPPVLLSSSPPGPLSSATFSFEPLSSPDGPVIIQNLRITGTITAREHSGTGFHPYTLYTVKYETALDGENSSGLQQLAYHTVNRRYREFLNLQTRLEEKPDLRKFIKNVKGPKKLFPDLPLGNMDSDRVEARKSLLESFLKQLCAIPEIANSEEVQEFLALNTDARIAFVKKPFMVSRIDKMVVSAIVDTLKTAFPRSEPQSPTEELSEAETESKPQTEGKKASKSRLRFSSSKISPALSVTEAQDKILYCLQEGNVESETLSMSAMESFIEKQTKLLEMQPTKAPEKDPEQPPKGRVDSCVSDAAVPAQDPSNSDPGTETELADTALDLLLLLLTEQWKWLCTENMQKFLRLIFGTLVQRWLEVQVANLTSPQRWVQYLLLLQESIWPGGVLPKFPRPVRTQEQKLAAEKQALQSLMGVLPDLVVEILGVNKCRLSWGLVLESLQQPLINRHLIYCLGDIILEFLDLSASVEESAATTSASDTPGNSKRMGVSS
UniProt Q14683: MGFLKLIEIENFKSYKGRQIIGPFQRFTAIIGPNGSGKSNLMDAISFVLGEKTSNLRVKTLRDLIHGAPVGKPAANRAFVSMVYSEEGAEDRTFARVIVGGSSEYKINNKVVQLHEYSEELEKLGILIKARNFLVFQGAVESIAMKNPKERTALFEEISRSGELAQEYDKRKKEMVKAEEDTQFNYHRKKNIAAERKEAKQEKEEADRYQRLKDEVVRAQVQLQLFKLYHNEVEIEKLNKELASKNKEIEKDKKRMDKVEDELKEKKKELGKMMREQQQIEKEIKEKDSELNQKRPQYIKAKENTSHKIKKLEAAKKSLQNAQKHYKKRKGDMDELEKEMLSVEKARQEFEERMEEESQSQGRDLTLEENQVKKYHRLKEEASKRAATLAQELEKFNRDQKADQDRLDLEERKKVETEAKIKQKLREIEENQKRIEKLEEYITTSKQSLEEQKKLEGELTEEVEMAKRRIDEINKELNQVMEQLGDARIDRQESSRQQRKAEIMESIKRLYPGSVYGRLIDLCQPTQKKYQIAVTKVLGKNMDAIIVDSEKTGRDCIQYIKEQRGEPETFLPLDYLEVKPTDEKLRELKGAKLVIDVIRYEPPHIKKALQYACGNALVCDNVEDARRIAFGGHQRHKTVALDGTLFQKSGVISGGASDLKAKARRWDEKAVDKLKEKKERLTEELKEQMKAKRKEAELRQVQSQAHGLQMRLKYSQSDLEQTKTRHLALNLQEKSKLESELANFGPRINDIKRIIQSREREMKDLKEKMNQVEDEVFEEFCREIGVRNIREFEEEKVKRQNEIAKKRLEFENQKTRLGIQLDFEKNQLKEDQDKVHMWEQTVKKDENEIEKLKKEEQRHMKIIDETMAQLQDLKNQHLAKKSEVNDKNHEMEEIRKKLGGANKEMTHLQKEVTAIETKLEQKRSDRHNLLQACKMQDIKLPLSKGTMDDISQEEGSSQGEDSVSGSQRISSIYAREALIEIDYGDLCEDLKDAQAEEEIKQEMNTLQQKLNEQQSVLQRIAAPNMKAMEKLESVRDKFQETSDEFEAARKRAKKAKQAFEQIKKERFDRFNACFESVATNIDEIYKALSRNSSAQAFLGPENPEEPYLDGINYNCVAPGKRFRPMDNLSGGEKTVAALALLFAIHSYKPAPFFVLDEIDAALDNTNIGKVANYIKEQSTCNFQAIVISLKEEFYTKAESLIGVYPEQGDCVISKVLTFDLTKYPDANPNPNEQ
UniProt Q15506: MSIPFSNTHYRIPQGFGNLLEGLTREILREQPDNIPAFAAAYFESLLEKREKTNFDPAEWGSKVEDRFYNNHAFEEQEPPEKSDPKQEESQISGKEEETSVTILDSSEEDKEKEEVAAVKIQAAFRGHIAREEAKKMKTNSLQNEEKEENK
UniProt O00161: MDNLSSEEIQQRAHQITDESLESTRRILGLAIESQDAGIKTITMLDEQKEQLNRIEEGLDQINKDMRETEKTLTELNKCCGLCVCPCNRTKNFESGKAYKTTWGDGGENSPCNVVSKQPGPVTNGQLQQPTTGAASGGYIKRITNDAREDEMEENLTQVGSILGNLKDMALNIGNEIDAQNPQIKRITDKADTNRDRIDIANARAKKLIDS
UniProt P00441, whole entry, looked up: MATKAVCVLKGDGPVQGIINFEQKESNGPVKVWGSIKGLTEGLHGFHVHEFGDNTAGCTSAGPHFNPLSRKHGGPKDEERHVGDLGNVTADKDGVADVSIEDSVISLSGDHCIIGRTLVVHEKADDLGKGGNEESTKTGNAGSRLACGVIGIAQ
UniProt O76070, whole entry, looked up: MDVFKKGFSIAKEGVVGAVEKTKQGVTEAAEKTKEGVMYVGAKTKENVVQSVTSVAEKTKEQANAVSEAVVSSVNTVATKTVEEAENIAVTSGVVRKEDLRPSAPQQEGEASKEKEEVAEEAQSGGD
UniProt P04179: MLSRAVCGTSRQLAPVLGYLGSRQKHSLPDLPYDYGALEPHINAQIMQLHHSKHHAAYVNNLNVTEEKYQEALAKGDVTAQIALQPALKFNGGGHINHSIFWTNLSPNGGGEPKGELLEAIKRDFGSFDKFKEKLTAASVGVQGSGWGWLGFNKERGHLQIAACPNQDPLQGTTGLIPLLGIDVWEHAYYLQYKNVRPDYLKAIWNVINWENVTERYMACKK
UniProt Q96KF7: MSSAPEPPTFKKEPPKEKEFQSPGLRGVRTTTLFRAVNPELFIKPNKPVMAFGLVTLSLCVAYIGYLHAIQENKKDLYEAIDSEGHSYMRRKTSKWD
UniProt P62306, whole entry, looked up: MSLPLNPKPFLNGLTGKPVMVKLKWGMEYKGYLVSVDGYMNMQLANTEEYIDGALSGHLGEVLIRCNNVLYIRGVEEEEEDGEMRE
UniProt Q9BX66: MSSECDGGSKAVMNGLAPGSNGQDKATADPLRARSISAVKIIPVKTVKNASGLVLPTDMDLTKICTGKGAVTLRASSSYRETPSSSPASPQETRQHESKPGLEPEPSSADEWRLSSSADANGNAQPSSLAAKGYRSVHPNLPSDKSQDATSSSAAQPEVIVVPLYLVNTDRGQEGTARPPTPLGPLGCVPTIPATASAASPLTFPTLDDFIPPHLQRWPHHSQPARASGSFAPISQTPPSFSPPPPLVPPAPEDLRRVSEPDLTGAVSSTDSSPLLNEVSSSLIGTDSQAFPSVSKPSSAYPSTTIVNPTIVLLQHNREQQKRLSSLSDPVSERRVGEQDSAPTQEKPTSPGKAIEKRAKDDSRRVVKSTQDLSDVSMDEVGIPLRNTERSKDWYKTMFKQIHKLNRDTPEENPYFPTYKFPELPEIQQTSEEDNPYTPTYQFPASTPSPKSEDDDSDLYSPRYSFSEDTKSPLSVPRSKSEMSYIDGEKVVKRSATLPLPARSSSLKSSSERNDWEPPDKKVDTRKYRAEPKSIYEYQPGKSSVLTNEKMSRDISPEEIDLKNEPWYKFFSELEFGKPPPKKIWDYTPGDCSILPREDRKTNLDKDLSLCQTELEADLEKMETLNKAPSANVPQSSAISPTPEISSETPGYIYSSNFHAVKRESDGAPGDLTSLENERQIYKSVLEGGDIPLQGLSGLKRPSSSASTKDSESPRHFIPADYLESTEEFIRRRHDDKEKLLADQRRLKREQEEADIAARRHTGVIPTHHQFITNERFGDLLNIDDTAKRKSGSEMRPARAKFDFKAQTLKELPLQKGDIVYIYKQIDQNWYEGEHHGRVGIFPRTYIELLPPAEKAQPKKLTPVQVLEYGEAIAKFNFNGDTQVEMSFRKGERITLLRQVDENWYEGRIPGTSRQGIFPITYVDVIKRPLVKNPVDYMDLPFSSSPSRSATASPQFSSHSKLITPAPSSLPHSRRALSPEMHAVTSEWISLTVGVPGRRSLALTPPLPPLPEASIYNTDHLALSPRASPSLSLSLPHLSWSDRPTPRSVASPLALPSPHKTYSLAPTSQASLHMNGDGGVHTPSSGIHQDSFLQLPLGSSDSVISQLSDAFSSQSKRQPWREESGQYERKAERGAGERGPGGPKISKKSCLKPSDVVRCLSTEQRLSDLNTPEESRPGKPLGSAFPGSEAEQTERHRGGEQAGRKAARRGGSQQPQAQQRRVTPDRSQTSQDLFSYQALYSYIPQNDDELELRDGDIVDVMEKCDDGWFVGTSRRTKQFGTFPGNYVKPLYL
UniProt Q96E16: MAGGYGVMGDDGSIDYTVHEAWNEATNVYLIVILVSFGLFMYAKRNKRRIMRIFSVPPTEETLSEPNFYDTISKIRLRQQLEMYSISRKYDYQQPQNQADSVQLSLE
UniProt O95295: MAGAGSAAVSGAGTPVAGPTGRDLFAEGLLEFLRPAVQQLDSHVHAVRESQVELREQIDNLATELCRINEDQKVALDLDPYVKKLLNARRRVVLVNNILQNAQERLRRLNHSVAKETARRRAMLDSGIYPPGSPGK
UniProt Q16637, whole entry, looked up: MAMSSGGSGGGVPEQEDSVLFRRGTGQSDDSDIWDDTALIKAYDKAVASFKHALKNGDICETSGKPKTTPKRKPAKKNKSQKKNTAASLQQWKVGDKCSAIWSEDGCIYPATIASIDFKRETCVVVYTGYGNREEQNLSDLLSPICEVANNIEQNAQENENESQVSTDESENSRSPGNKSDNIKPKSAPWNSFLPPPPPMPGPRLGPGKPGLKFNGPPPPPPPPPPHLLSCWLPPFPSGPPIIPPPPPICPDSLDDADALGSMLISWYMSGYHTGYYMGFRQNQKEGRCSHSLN
UniProt Q7KZF4: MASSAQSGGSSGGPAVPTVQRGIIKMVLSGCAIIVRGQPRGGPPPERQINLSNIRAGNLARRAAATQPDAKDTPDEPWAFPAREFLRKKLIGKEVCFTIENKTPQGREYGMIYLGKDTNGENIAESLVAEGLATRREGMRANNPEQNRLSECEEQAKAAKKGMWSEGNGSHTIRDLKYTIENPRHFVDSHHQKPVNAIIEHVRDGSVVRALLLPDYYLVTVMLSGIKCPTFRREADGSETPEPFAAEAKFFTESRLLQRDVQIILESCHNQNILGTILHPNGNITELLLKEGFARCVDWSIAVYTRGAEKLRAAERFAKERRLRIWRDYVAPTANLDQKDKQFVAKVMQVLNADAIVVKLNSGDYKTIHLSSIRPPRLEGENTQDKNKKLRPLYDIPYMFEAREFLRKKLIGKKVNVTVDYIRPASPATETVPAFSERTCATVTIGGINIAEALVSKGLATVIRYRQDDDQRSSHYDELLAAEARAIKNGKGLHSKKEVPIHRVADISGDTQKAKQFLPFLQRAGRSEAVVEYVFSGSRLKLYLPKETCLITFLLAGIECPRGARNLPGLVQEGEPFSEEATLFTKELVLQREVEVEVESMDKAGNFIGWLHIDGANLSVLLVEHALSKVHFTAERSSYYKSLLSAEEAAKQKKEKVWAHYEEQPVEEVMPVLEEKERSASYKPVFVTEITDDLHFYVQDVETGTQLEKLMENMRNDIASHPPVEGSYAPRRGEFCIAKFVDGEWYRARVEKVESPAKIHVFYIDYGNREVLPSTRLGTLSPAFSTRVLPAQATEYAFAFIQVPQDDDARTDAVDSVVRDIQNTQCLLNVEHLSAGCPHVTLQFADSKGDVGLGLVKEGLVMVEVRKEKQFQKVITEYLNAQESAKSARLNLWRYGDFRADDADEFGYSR
UniProt Q9Y5X2: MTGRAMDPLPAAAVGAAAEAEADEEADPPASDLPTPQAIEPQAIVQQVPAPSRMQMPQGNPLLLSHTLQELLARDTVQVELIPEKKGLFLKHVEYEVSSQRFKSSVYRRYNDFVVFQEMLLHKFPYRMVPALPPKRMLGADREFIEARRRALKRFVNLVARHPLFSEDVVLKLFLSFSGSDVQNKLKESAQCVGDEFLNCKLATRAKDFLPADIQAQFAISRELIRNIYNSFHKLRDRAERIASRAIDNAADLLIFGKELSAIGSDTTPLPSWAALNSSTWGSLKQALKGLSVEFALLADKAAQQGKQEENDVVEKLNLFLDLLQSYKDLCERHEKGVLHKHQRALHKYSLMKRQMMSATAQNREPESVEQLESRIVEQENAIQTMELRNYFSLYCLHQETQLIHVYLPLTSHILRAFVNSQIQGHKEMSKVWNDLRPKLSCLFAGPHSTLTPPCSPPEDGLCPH

Compound: c1cn2cc(-c3ccc4cn[nH]c4c3)nc(Nc3ccc(N4CCOCC4)cc3)c2n1 [entospletinib]
Test: log2 fold change, soluble protein after heating vs DMSO (PISA); higher = thermal stabilisation; K562 cells, 10 uM, 30 min; active = over 0.2 and 3.5 SD of the protein, either way, in both replicates (recomputed)
How it was run: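 Thermal stability values are relative to control samples and come from duplicates. They are expressed as log2 fold changes. For measurement, K562 cells (2×10^6 cells/mL) received 10 μM compound for 30 min, and aliquots were heated for 3 min over 48°C-58°C, pooled, and extracted at 4°C in PBS with 0.5% NP-40. Soluble protein, the supernatant after 21,000xg for 90 min, was quantified by TMTpro 16plex LC-MS/MS with equalised channel sums.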

| Target | log2 fold change |
| --- | --- |
| SNX19 (UniProt Q92543) | inactive: 0.091 |
| SNX27 (UniProt Q96L92) | inactive: 0.281 |
| SMC1A (UniProt Q14683) | inactive: -0.009 |
| SMU1 (UniProt Q2TAY7) | inactive: -0.019 |
| SMCR8 (UniProt Q8TEV9) | inactive: -0.19 |
| SPA17 (UniProt Q15506) | inactive: 0.071 |
| SMC1B isoform 3 (UniProt Q8NDV3) | inactive: -0.031 |
| SLC9A1 (UniProt P19634) | inactive: -0.046 |
| SLC9A3R1 (UniProt O14745) | inactive: 0.012 |
| SLCO4A1 (UniProt Q96BD0) | inactive: 0.124 |
| SNAP23 isoform 2 (UniProt O00161) | inactive: -0.152 |
| SOD1 (UniProt P00441) | inactive: 0.014 |
| SNCG (UniProt O76070) | inactive: -0.012 |
| SNRPA (UniProt P09012) | inactive: 0.06 |
| SMARCB1 (UniProt Q12824) | active: 0.887 |
| SOD2 (UniProt P04179) | inactive: -0.01 |
| SLC9A8 isoform 2 (UniProt Q9Y2E8) | inactive: -0.076 |
| SMIM8 (UniProt Q96KF7) | inactive: -0.026 |
| SNRPF (UniProt P62306) | inactive: -0.018 |
| SORBS1 isoform 12 (UniProt Q9BX66) | inactive: -0.027 |
| SMIM19 (UniProt Q96E16) | inactive: -0.01 |
| SMARCA1 (UniProt P28370) | inactive: 0.072 |
| SNAPIN (UniProt O95295) | inactive: 0.003 |
| SMC2 (UniProt O95347) | inactive: 0.022 |
| SMN1 (UniProt Q16637) | inactive: 0.078 |
| SND1 (UniProt Q7KZF4) | inactive: 0.322 |
| SNCA (UniProt P37840) | inactive: -0.026 |
| SNX8 (UniProt Q9Y5X2) | inactive: 0.075 |

2 entries from above, as comma-separated lines.
Target,log2 fold change
SMC1A (UniProt Q14683),inactive: -0.009
SMU1 (UniProt Q2TAY7),inactive: -0.019
